Test results reported in article PMC10130768.
Results are given in words; binding and its absence hold for the method and conditions named. Binding seen in cells or lysates may run through a third protein. A result given as binding can be weak or reduced; the word gives no strength.

Biological target: HA-FLAG-tagged mouse WT BAZ2A (mouse)
Test: co-IP; anti-HA magnetic beads IP of F/H-BAZ2A (WT, WY/GA, ΔTAM) from MNase-digested nuclear extracts of transfected PC3 cells; overnight at 4°C; washes with 200 mM NaCl, 0.02% NP-40; Western blot

| binding | Binder |
| --- | --- |
| binds | NUP107 (protein, UniProt P57740 1-925) MDRSGFGEISSPVIREAEVTRTARKQSAQKRVLLQASQDENFGNTTPRNQVIPRTPSSFRQPFTPTSRSLLRQPDISCILGTGGKSPRLTQSSGFFGNLSMVTNLDDSNWAAAFSSQRSGLFTNTEPHSITEDVTISAVMLREDDPGEAASMSMFSDFLQSFLKHSSSTVFDLVEEYENICGSQVNILSKIVSRATPGLQKFSKTASMLWLLQQEMVTWRLLASLYRDRIQSALEEESVFAVTAVNASEKTVVEALFQRDSLVRQSQLVVDWLESIAKDEIGEFSDNIEFYAKSVYWENTLHTLKQRQLTSYVGSVRPLVTELDPDAPIRQKMPLDDLDREDEVRLLKYLFTLIRAGMTEEAQRLCKRCGQAWRAATLEGWKLYHDPNVNGGTELEPVEGNPYRRIWKISCWRMAEDELFNRYERAIYAALSGNLKQLLPVCDTWEDTVWAYFRVMVDSLVEQEIQTSVATLDETEELPREYLGANWTLEKVFEELQATDKKRVLEENQEHYHIVQKFLILGDIDGLMDEFSKWLSKSRNNLPGHLLRFMTHLILFFRTLGLQTKEEVSIEVLKTYIQLLIREKHTNLIAFYTCHLPQDLAVAQYALFLESVTEFEQRHHCLELAKEADLDVATITKTVVENIRKKDNGEFSHHDLAPALDTGTTEEDRLKIDVIDWLVFDPAQRAEALKQGNAIMRKFLASKKHEAAKEVFVKIPQDSIAEIYNQCEEQGMESPLPAEDDNAIREHLCIRAYLEAHETFNEWFKHMNSVPQKPALIPQPTFTEKVAHEHKEKKYEMDFGIWKGHLDALTADVKEKMYNVLLFVDGGWMVDVREDAKEDHERTHQMVLLRKLCLPMLCFLLHTILHSTGQYQECLQLADMVSSERHKLYLVFSKEELRKLLQKLRESSLMLLDQGLDPLGYEIQL |
| binds | SMC1A (protein, UniProt Q14683 1-1233) MGFLKLIEIENFKSYKGRQIIGPFQRFTAIIGPNGSGKSNLMDAISFVLGEKTSNLRVKTLRDLIHGAPVGKPAANRAFVSMVYSEEGAEDRTFARVIVGGSSEYKINNKVVQLHEYSEELEKLGILIKARNFLVFQGAVESIAMKNPKERTALFEEISRSGELAQEYDKRKKEMVKAEEDTQFNYHRKKNIAAERKEAKQEKEEADRYQRLKDEVVRAQVQLQLFKLYHNEVEIEKLNKELASKNKEIEKDKKRMDKVEDELKEKKKELGKMMREQQQIEKEIKEKDSELNQKRPQYIKAKENTSHKIKKLEAAKKSLQNAQKHYKKRKGDMDELEKEMLSVEKARQEFEERMEEESQSQGRDLTLEENQVKKYHRLKEEASKRAATLAQELEKFNRDQKADQDRLDLEERKKVETEAKIKQKLREIEENQKRIEKLEEYITTSKQSLEEQKKLEGELTEEVEMAKRRIDEINKELNQVMEQLGDARIDRQESSRQQRKAEIMESIKRLYPGSVYGRLIDLCQPTQKKYQIAVTKVLGKNMDAIIVDSEKTGRDCIQYIKEQRGEPETFLPLDYLEVKPTDEKLRELKGAKLVIDVIRYEPPHIKKALQYACGNALVCDNVEDARRIAFGGHQRHKTVALDGTLFQKSGVISGGASDLKAKARRWDEKAVDKLKEKKERLTEELKEQMKAKRKEAELRQVQSQAHGLQMRLKYSQSDLEQTKTRHLALNLQEKSKLESELANFGPRINDIKRIIQSREREMKDLKEKMNQVEDEVFEEFCREIGVRNIREFEEEKVKRQNEIAKKRLEFENQKTRLGIQLDFEKNQLKEDQDKVHMWEQTVKKDENEIEKLKKEEQRHMKIIDETMAQLQDLKNQHLAKKSEVNDKNHEMEEIRKKLGGANKEMTHLQKEVTAIETKLEQKRSDRHNLLQACKMQDIKLPLSKGTMDDISQEEGSSQGEDSVSGSQRISSIYAREALIEIDYGDLCEDLKDAQAEEEIKQEMNTLQQKLNEQQSVLQRIAAPNMKAMEKLESVRDKFQETSDEFEAARKRAKKAKQAFEQIKKERFDRFNACFESVATNIDEIYKALSRNSSAQAFLGPENPEEPYLDGINYNCVAPGKRFRPMDNLSGGEKTVAALALLFAIHSYKPAPFFVLDEIDAALDNTNIGKVANYIKEQSTCNFQAIVISLKEEFYTKAESLIGVYPEQGDCVISKVLTFDLTKYPDANPNPNEQ |
